{
  "source": "patent US20260242416A1",
  "about": "“ANTIMICROBIAL PEPTIDES” (priority 2023, published 2026)",
  "key": {"[1]": {"system": "Escherichia coli ATCC 25922", "test": "Antimicrobial susceptibility testing (MIC/MBC), Example 1", "type": "cell-based", "conditions": "Table 3; footnote: wild-type Escherichia coli ATCC 29522; minimum of three independent experiments", "method": "Twenty-one putative AMP sequences identified using the rAMPage pipeline were validated through a minimum of three AST experiments performed independently on separate days. In these tests, the AMP activity was assessed using two metrics: minimum inhibitory concentration and minimum bactericidal concentration (MIC and MBC, respectively). MIC and MBC values were determined using procedures outlined by the Clinical and Laboratory Standards Institute (CLSI), with the recommended adaptations for the testing of cationic AMPs described previously. “Wild-type” strains of Escherichia coli (E. coli 25922) and Staphylococcus aureus (S. aureus 29213) were purchased from the American Type Culture Collection (ATCC; Manassas, VA, USA) and were used for screening of antimicrobial activity. Briefly, putative AMPs were synthesized by Genscript (Piscataway, NJ, USA) and received in lyophilized format. […] This suspension was measured and adjusted to achieve an optical density of 0.08-0.1, equivalent to a 0.5 McFarland standard (1-2×10^8 cfu/mL). […]"}, "[2]": {"system": "E. coli ATCC 25922, Salmonella Enteritidis, S. aureus ATCC 29213", "test": "Broth microdilution, panel result (at least one / all strains), Example 2", "type": "cell-based", "set-up": "key to inhibitory activity (asterisk): *Indicates inhibitory activity", "conditions": "for inhibitory activity (asterisk): Table 14, against at least one of E. coli ATCC 25922, Salmonella Enteritidis, S. aureus ATCC 29213; for spectrum of antimicrobial activity: panel of E. coli, Salmonella Enteritidis, S. aureus, up to 128 μg/mL", "method": "The antimicrobial activity of the putative AMPs was determined by a broth microdilution assay as described by the Clinical and Laboratory Standards Institute, with the published adaptations for testing of cationic peptides. Escherichia coli 25922 and Staphylococcus aureus 29213 isolates were purchased from the American Type Culture Collection (ATCC; Manassas, VA, USA). A human clinical isolate of Salmonella enterica serovar Enteritidis was provided by the BC Centre for Disease Control. Bacteria from stocks stored at −80° C. were streaked onto nonselective Columbia blood agar with 5% sheep blood (Oxoid) and incubated overnight at 37° C. Next, 2-4 colonies were streaked onto a new agar plate to ensure uniform health of colonies used in the broth microdilution assay. Isolated colonies were suspended in MHB and the optical density was measured with a spectrophotometer to create an initial inoculum concentration of approximately 1×10^8 cfu/mL. The inoculum was diluted 1:250 to a final concentration of 2-8×10^5 cfu/mL, which was confirmed by performing a Total Viability Count (TVC). The TVC consisted of plating a 1:1000 dilution of the final inoculum on nonselective media and was also used to confirm the health and purity of the inoculum in each trial.\n(§1) Lyophilized 80 μg peptide aliquots synthesized by GenScript (Piscataway, NJ, USA) were resuspended to 1.28 mg/mL with UltraPure water (Thermo Fisher Scientific, Waltham, MA, USA) and serially diluted in polypropylene 96-well microtiter plates (Greiner Bio-One #650261, Kremsmunster, Austria) from 128 down to 0.5 μg/mL. Two columns per plate were reserved for growth and sterility controls. Inoculum was added to the wells containing the peptide and the growth control. Plates were incubated for 20-24 h at 37° C. The minimum inhibitory concentration (MIC) was determined as the lowest peptide concentration where there was no visible bacterial growth."}, "E. coli and/or S. aureus": {"system": "E. coli and/or S. aureus", "test": "Antimicrobial susceptibility testing, panel result, Example 1", "type": "cell-based"}, "[3]": {"system": "Salmonella enterica serovar Enteritidis (human clinical isolate)", "type": "cell-based", "method": "(§2) Bacteria were grown overnight at 37° C. in Mueller-Hinton Broth (MHB; Sigma-Aldrich, St. Louis. MO, USA) in a shaking incubator and aliquoted into cryovials with a 50% glycerol solution in a 1:1 ratio. No additives were added to the MHB during the growth of bacterial isolates. Glycerol stocks were stored at −80° C.\n(§3) The antimicrobial activity of the putative AMPs was determined by a broth microdilution assay as described by the Clinical and Laboratory Standards Institute, with the published adaptations for testing of cationic peptides. Escherichia coli 25922 and Staphylococcus aureus 29213 isolates were purchased from the American Type Culture Collection (ATCC; Manassas, VA, USA). […] Isolated colonies were suspended in MHB and the optical density was measured with a spectrophotometer to create an initial inoculum concentration of approximately 1×10^8 cfu/mL. […]\nas §1, with “Two columns per plate were reserved for growth and sterility controls. Inoculum was added to the wells containing the peptide and the growth control. Plates were incubated for 20-24 h at 37° C.” left out"}, "S. aureus ATCC 29213": {"system": "S. aureus ATCC 29213", "type": "cell-based, Staphylococcus aureus", "method": "as §2, §3\nas §1, with “Two columns per plate were reserved for growth and sterility controls. Inoculum was added to the wells containing the peptide and the growth control. Plates were incubated for 20-24 h at 37° C.” left out"}},
  "note": "Part of at least one peptide drawing is inferred or uncertain, most often the ends. Some results were stated once for a whole list of compounds, not compound by compound. Some compounds share one range, which may span the group rather than tell each member. Where a SMILES comes first, the peptide text is derived from it.",
  "data": [
    {"compound": "CC(C)C[C@H](NC(=O)[C@H](CCCCN)NC(=O)[C@H](CCC(=O)O)NC(=O)[C@H](CC(C)C)NC(=O)[C@H](CCCNC(=N)N)NC(=O)[C@@H](NC(=O)[C@H](Cc1ccc(O)cc1)NC(=O)[C@H](CC(N)=O)NC(=O)[C@H](CCCCN)NC(=O)[C@H](CCCCN)NC(=O)[C@H](CC(N)=O)NC(=O)[C@@H](NC(=O)[C@H](CC(C)C)NC(=O)[C@H](CCCCN)NC(=O)[C@H](CCCCN)NC(=O)[C@@H](NC(=O)[C@H](CO)NC(=O)[C@H](CCCCN)NC(=O)[C@H](CO)NC(=O)[C@H](CC(C)C)NC(=O)[C@H](Cc1c[nH]c2ccccc12)NC(=O)[C@@H](N)CO)C(C)C)C(C)C)[C@@H](C)O)C(=O)N[C@@H](C)C(=O)N[C@@H](CCCCN)C(=O)N[C@@H](CCCCN)C(=O)N[C@@H](CCCCN)C(=O)N[C@@H](CC(C)C)C(=O)N[C@@H](Cc1ccccc1)C(=O)N[C@@H](CC(N)=O)C(=O)N[C@@H](CCC(=O)O)C(=O)O", "note": "[TeRu4] (H-SWLSKSVKKLVNKKNYTRLEKLAKKKLFNE-OH)", "values": [
      {"measurement": "MIC* (μg/mL) E. coli", "setting": "[1]", "result": "1 to 2", "unit": "µg⁻¹ mL⁻¹"},
      {"measurement": "inhibitory activity (asterisk)", "setting": "[2]", "result": "996.* SWLSKSVKKLVNKKNYTRLEKLAKKKLFNE"},
      {"measurement": "spectrum of antimicrobial activity", "setting": "[2]", "result": "selectivity for the Gram-negative species tested"},
      {"measurement": "activity against E. coli / S. aureus", "setting": "E. coli and/or S. aureus", "result": "active only against E. coli"}
    ]},
    {"compound": "CC[C@H](C)[C@H](NC(=O)[C@@H](N)CCCCN)C(=O)N[C@@H](CCCCN)C(=O)N[C@H](C(=O)N1CCC[C@H]1C(=O)N[C@@H](Cc1c[nH]c2ccccc12)C(=O)NCC(=O)N[C@@H](CCCCN)C(=O)N[C@H](C(=O)N[C@@H](CCCCN)C(=O)N[C@@H](CC(=O)O)C(=O)N[C@@H](Cc1ccccc1)C(=O)N[C@@H](CC(C)C)C(=O)N[C@H](C(=O)NCC(=O)NCC(=O)N[C@@H](CCSC)C(=O)N[C@@H](CCCCN)C(=O)N[C@@H](C)C(=O)N[C@H](C(=O)NCC(=O)N[C@@H](CCCCN)C(=O)N[C@@H](CCCCN)C(=O)O)C(C)C)C(C)C)C(C)C)[C@@H](C)CC", "note": "[TeBi1] (H-KIKIPWGKVKDFLVGGMKAVGKK-OH)", "values": [
      {"measurement": "MIC* (μg/mL) E. coli", "setting": "[1]", "result": "1 to 4", "unit": "µg⁻¹ mL⁻¹"},
      {"measurement": "MIC against Salmonella Enteritidis", "setting": "[3]", "result": "4 to 8", "unit": "µg/mL"},
      {"measurement": "MIC against S. aureus", "setting": "S. aureus ATCC 29213", "result": "4 to 8", "unit": "µg/mL"},
      {"measurement": "inhibitory activity (asterisk)", "setting": "[2]", "result": "1090.* KIKIPWGKVKDFLVGGMKAVGKK"},
      {"measurement": "concentration exhibiting inhibitory activity against at least one strain", "setting": "[2]; at least one of E. coli ATCC 25922, Salmonella Enteritidis, or S. aureus ATCC 29213", "result": "lower than 128 ug/mL"},
      {"measurement": "spectrum of antimicrobial activity", "setting": "[2]", "result": "active against all three bacteria"}
    ]}
  ]
}
